Experimental data from PMC8110583.

Sequences of proteins named here, by UniProt entry; tags and fusion partners are left off.
UniProt P09874: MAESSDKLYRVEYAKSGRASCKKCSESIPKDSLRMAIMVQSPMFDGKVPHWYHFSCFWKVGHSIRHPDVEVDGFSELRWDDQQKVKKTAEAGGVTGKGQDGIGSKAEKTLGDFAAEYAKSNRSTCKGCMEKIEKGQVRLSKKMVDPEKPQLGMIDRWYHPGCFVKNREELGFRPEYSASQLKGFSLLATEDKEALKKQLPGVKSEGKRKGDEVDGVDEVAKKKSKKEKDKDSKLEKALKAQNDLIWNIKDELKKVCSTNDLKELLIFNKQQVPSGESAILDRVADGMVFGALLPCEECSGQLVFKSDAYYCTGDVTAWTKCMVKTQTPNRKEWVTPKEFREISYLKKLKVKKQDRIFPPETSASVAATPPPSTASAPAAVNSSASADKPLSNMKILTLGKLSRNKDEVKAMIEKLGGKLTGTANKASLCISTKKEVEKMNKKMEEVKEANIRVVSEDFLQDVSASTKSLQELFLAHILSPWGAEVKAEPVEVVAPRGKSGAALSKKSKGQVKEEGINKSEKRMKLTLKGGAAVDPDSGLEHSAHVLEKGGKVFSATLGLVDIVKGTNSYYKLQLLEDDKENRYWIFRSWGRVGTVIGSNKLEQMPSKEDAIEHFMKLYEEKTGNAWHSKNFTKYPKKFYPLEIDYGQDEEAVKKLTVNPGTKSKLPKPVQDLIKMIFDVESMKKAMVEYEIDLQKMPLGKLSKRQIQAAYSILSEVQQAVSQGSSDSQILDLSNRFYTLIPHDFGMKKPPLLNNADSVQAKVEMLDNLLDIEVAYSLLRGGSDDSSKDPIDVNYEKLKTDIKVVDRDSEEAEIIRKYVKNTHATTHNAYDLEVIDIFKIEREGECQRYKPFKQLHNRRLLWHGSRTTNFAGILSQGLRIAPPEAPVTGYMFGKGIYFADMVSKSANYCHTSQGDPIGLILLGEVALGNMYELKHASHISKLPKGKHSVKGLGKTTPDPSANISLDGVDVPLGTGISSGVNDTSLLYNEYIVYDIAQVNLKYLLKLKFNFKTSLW
UniProt Q01844: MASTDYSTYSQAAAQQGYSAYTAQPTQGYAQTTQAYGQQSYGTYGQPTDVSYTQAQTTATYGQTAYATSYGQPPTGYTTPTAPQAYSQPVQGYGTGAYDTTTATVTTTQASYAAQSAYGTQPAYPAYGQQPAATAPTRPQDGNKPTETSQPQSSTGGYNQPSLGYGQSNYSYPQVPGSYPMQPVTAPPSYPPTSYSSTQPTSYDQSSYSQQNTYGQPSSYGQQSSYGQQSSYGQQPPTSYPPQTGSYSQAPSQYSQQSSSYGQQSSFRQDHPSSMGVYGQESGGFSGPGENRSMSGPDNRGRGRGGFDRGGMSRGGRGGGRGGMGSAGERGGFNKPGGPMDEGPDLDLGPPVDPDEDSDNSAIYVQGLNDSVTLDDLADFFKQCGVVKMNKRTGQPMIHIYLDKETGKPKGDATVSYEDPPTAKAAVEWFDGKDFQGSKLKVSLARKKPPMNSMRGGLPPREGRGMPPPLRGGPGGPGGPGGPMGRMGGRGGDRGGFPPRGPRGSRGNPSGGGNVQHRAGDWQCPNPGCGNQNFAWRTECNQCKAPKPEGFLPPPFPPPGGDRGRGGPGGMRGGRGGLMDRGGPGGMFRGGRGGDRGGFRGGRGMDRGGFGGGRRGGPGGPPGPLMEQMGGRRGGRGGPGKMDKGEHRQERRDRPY

target: TDP-43 (human (endogenous in GPiNs, G401, T47D, A375)) (UniProt Q13148); assay: affinity purification with mass spectrometry; IP of endogenous TDP-43 from GPiN lysate (1-2 mg extract, 1-2 ug antibody, 4 C overnight, Protein G beads) against isotype-matched IgG control, triplicate, label-free LC-MS/MS; interactors: log2 FC > 0 and FDR <= 0.1

Substance | binding
VCP (from UniProt P55072 1-806) | binds
PARP1 (from UniProt P09874 1-1014) | binds
EWSR1 (from UniProt Q01844 1-656) | binds

No constants are given. Whether binding was seen depends on the method and setting. In cells and extracts the contact can be indirect. A yes stands for co-enrichment or nearness to the bait. Other partners may have been found.
